The values below come from PubChem BioAssay AID336 (DTP/NCI, 2004).

The list is a part of this screen's results and no random one: it gathers tests that were run many times, whatever their T/C, doses with no T/C, and many T/C values between a quarter and a half above the control. Other doses and runs of a compound stand elsewhere. T/C: endpoint of the treated group in % of that of the vehicle group. Some doses have a count of surviving animals in place of a T/C: the source files T/C as zero there, which appears to mark a toxic dose or a test without result, not a measured value. Some doses without a T/C left all or most animals alive at the check, yet need not have been tolerated: survival well below the control is almost never listed, so the zero probably covers shortened survival too. Counts of survivors are from the toxicity check (mostly the fifth day) where no day follows; animals may have died later. Schedules are NCI's codes, read here as Q, the interval in days (D) or hours (H), X, the number of doses. Some entries were tested several times; the values are given in rising order. For survival time, the PubChem record calls one and a half times the control and up active, and a quarter to a half above the control has no call in these data; cut-offs in other NCI protocols can differ. Some T/C values are followed by the survivors on the day toxicity was checked, most often the fifth; without a count, all were alive then.

The subject of the test is BDF1 mice, P388/VCR leukemia ip, median survival T/C. The test can be described thus: NCI In Vivo Anticancer Drug Screen. Data for tumor model P388 Leukemia resistant to Vincristine; NSC 67574 (intraperitoneal) in B6D2F1 (BDF1) mice. The note with it: T/C endpoint: median survival time, higher T/C = longer survival. How it is done: The antitumor activity of compounds was measured in mice bearing transplantable tumors. Survival or tumor size were measured and the results are expressed as the measurement made in the treated group (T) divided by the measurement made in the vehicle treated control group (C). The tumor model used in this assay is P388 Leukemia resistant to Vincristine; NSC 67574 (intraperitoneal) in B6D2F1 (BDF1) mice

Where [1] appears, read: dose: 150.0 mg/kg/injection, schedule: Q01DX010 (ip), vehicle: saline.
The mark [2] stands for this setting: dose: 50.0 mg/kg/injection, schedule: Q01DX010 (ip), vehicle: saline.

Turning to `O=C(Nc1ccc(C2=NCCN2)cc1)Nc1cccc(NC(=O)Nc2ccc(C3=NCCN3)cc2)c1`, where the note is “dose: 240.0 mg/kg/injection, schedule: Q01DX010 (ip), vehicle: saline”, the T/C was 137 and 145 % of control.
Regarding `O=C1N[C@@H]([C@H]2CC[C@H](Cl)CN2)C(=O)N[C@H]1[C@H]1CC[C@H](Cl)CN1`, the T/C by setting is: (dose: 1.44 mg/kg/injection, schedule: Q04DX003 (ip), vehicle: saline) 141 % of control; (dose: 6.67 mg/kg/injection, schedule: Q04DX003 (ip), vehicle: saline) 134 % of control.
Regarding `Cn1c(N)nc2nc[nH]c2c1=S`, the T/C (dose: 80.0 mg/kg/injection, schedule: Q01DX010 (ip), vehicle: saline) was 134 % of control.
As for `CC(CN1CC(=O)NC(=O)C1)N1CC(=O)NC(=O)C1` (stereo not given), the T/C (dose: 86.4 mg/kg/injection, schedule: Q04DX003 (ip), vehicle: Klucel (hydroxypropylcellulose) (HPC)) is 129 % of control; the T/C (dose: 108.0 mg/kg/injection, schedule: Q04DX003 (ip), vehicle: alkali diluted with saline) is 126 % of control; the T/C (dose: 144.0 mg/kg/injection, schedule: Q04DX003 (ip), vehicle: Klucel (hydroxypropylcellulose) (HPC)) was 128 % of control; the T/C (dose: 180.0 mg/kg/injection, schedule: Q04DX003 (ip), vehicle: Klucel (hydroxypropylcellulose) (HPC)) was 126 % of control; the T/C (dose: 180.0 mg/kg/injection, schedule: Q04DX003 (ip), vehicle: alkali diluted with saline) is 138 % of control; the T/C (dose: 300.0 mg/kg/injection, schedule: Q04DX003 (ip), vehicle: Klucel (hydroxypropylcellulose) (HPC)) is 133 % of control [7 of 8 alive]. Besides, under “dose: 500.0 mg/kg/injection, schedule: Q04DX003 (ip), vehicle: Klucel (hydroxypropylcellulose) (HPC)”, the T/C is 140 % of control.
Consider `CCCCn1cnc2c(=S)nc[nH]c21`, for which, under “dose: 128.0 mg/kg/injection, schedule: Q01DX010 (ip), vehicle: saline”, the survivor count is listed as 6 of 6.
As for `CS(=O)(=O)OCCCl`, the survivor count (dose: 18.8 mg/kg/injection, schedule: Q01DX010 (ip), vehicle: saline) is given as 6 of 6; the survivor count under setting [1] is listed as 3 of 6; the survivor count (dose: 300.0 mg/kg/injection, schedule: Q01DX010 (ip), vehicle: saline) was 0 of 6. In addition, the T/C under setting [1] was 139 % of control.
As for `O=C1CCC(N2C(=O)c3ccccc3C2=O)C(=O)N1` (stereo not given), the T/C (dose: 31.3 mg/kg/injection, schedule: Q01DX010 (ip), vehicle: saline) is 125 % of control. Moreover, under “dose: 250.0 mg/kg/injection, schedule: Q01DX010 (ip), vehicle: saline”, the survivor count is given as 6 of 6.
As for `COc1cccc2c1C(=O)c1c(O)c3c(c(O)c1C2=O)C[C@@](O)(C(C)=O)C[C@@H]3OC1CC(N)C(O)C(C)O1` (stereo not given in full), the T/C (dose: 1.3 mg/kg/injection, schedule: Q04DX003 (ip), vehicle: water) is 135 % of control; the T/C (dose: 1.73 mg/kg/injection, schedule: Q04DX003 (ip), vehicle: water) is 134 % of control; the T/C (dose: 2.16 mg/kg/injection, schedule: Q04DX003 (ip), vehicle: water) was 135 % of control; the T/C (dose: 2.88 mg/kg/injection, schedule: Q04DX003 (ip), vehicle: water) is 128 % of control; the T/C (dose: 4.8 mg/kg/injection, schedule: Q04DX003 (ip), vehicle: water) is 133 % of control.
In the case of `CC1CC(C)(O)CC(C(O)CC2CC(=O)NC(=O)C2)C1=O` (stereo not given), the T/C was 130 % of control (dose: 173.0 micrograms/kg/injection, schedule: Q01DX009 (ip), vehicle: saline) and 134 % of control (dose: 288.0 micrograms/kg/injection, schedule: Q01DX009 (ip), vehicle: saline).
For `COS(C)(=O)=O`, the survivor count is 6 of 6 under setting [2] and 5 of 6 (dose: 100.0 mg/kg/injection, schedule: Q01DX010 (ip), vehicle: saline).
`O=C(Nc1ccc(C2=NCCN2)cc1)c1ccc(C(=O)Nc2ccc(C3=NCCN3)cc2)c(F)c1`: the T/C (dose: 180.0 mg/kg/injection, schedule: Q01DX010 (ip), vehicle: saline) is 138 % of control.
As to `CS(=O)(=O)OCCN(CCOS(C)(=O)=O)c1ccc(N=O)cc1`, the T/C (dose: 0.5 mg/kg/injection, schedule: Q01DX010 (ip), vehicle: saline) is 135 % of control. The survivor count reads like this: (dose: 1.0 mg/kg/injection, schedule: Q01DX010 (ip), vehicle: saline) 6 of 6; (dose: 2.0 mg/kg/injection, schedule: Q01DX010 (ip), vehicle: saline) 6 of 6; (dose: 4.0 mg/kg/injection, schedule: Q01DX010 (ip), vehicle: saline) 0 of 6 and 6 of 6.
In the case of `Cc1cc(N(CCCl)CCCl)ccc1N=Nc1ccccc1C(=O)O`, the survivor count (dose: 40.0 mg/kg/injection, schedule: Q01DX010 (ip), vehicle: saline) is recorded as 6 of 6.
Turning to `CC1CN=C(c2ccc(NC(=O)c3ccc(C(=O)Nc4ccc(C5=NCC(C)N5)cc4)cc3)cc2)N1` (stereo not given), the T/C is 136 % of control (dose: 10.0 mg/kg/injection, schedule: Q01DX010 (ip), vehicle: saline) and 127 % of control (dose: 15.0 mg/kg/injection, schedule: Q01DX010 (ip), vehicle: saline).
In the case of `O=NN(CCCl)C(=O)NCCCl`, the survivor count is, setting by setting: (dose: 25.0 mg/kg/injection, schedule: Q01DX010 (ip), vehicle: saline) 6 of 6; under setting [2], 6 of 6; (dose: 60.0 mg/kg/injection, schedule: Q01DX001 (ip), vehicle: saline) 8 of 8.
As to `Nc1nc(N)c2nc(CNc3ccc(C(=O)NC(CCC(=O)O)C(=O)O)cc3)cnc2n1` (stereo not given), the T/C (dose: 25.0 micrograms/kg/injection, schedule: Q01DX010 (ip), vehicle: other) was 129 % of control; the T/C (dose: 50.0 micrograms/kg/injection, schedule: Q01DX010 (ip), vehicle: other) is 133 % of control; the T/C (dose: 100.0 micrograms/kg/injection, schedule: Q01DX010 (ip), vehicle: other) is 133 and 141 % of control.
Turning to `COC(=O)[C@@]12OC[C@]34[C@H]([C@@H](O)[C@@H]1O)[C@@]1(C)CC(=O)C(O)=C(C)[C@@H]1C[C@H]3OC(=O)[C@H](OC(=O)/C=C(\C)C(C)C)[C@@H]24`, the survivor count runs as follows: (dose: 1080.0 micrograms/kg/injection, schedule: Q01DX004 (ip), vehicle: saline + alcohol) 5 of 8; (dose: 1200.0 micrograms/kg/injection, schedule: Q01DX009 (ip), vehicle: saline + alcohol) 8 of 8; (dose: 1800.0 micrograms/kg/injection, schedule: Q01DX004 (ip), vehicle: saline + alcohol) 0 of 8; (dose: 2000.0 micrograms/kg/injection, schedule: Q01DX009 (ip), vehicle: saline + alcohol) 2 of 8.
